Measured values published in paper PMC5241803, “Structural basis for the recognition and degradation of host TRIM proteins by Salmonella effector SopA” (Nature Communications, 2017).
Results are given in words; binding and its absence hold for the method and conditions named. In cells and extracts the contact can be indirect. These calls come from enrichment with a bait or labelling near it, and not all partners need be listed.

Protein sequences, listed by entry. Tags and fused reporters are not part of them.
UniProt Q8ZNR3: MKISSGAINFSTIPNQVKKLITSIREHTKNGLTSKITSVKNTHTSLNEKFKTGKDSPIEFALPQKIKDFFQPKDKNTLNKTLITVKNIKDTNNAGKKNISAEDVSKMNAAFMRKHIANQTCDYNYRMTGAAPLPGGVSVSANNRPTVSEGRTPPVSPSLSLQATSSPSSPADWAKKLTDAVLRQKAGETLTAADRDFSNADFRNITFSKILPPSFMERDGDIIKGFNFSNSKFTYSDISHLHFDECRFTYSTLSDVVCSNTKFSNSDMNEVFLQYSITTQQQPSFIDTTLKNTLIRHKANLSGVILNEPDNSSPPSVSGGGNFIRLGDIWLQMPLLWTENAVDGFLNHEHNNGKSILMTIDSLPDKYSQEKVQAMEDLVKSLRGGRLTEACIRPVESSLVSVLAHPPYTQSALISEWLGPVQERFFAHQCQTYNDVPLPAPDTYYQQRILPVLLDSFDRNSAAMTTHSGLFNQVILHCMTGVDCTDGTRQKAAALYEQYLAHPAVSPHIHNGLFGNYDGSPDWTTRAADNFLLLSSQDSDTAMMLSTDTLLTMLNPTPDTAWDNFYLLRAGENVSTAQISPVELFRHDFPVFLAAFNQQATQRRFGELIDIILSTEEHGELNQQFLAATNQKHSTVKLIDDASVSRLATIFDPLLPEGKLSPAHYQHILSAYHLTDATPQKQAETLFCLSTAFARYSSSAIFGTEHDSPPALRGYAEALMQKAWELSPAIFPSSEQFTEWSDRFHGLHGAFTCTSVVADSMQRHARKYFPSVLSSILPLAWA

Assays:
[1] = target: SopA–HA (S. Typhimurium SL1344) (UniProt Q8ZNR3); test: affinity purification with mass spectrometry
[2] = target: GFP-SopA (S. Typhimurium SL1344) (UniProt Q8ZNR3); test: affinity purification with mass spectrometry

Binder | binding [1] | binding [2]
MBP-TRIM56 (natural protein, human, UniProt Q9BRZ2 1-755, looked up, TRIM56, human, full length, in pMAL-C2X; also called recombinant TRIM56; not shown: MBP, N-terminal, kept) MVSHGSSPSLLEALSSDFLACKICLEQLRAPKTLPCLHTYCQDCLAQLADGGRVRCPECRETVPVPPEGVASFKTNFFVNGLLDLVKARACGDLRAGKPACALCPLVGGTSTGGPATARCLDCADDLCQACADGHRCTRQTHTHRVVDLVGYRAGWYDEEARERQAAQCPQHPGEALRFLCQPCSQLLCRECRLDPHLDHPCLPLAEAVRARRPGLEGLLAGVDNNLVELEAARRVEKEALARLREQAARVGTQVEEAAEGVLRALLAQKQEVLGQLRAHVEAAEEAARERLAELEGREQVARAAAAFARRVLSLGREAEILSLEGAIAQRLRQLQGCPWAPGPAPCLLPQLELHPGLLDKNCHLLRLSFEEQQPQKDGGKDGAGTQGGEESQSRREDEPKTERQGGVQPQAGDGAQTPKEEKAQTTREEGAQTLEEDRAQTPHEDGGPQPHRGGRPNKKKKFKGRLKSISREPSPALGPNLDGSGLLPRPIFYCSFPTRMPGDKRSPRITGLCPFGPREILVADEQNRALKRFSLNGDYKGTVPVPEGCSPCSVAALQSAVAFSASARLYLINPNGEVQWRRALSLSQASHAVAALPSGDRVAVSVAGHVEVYNMEGSLATRFIPGGKASRGLRALVFLTTSPQGHFVGSDWQQNSVVICDGLGQVVGEYKGPGLHGCQPGSVSVDKKGYIFLTLREVNKVVILDPKGSLLGDFLTAYHGLEKPRVTTMVDGRYLVVSLSNGTIHIFRVRSPDS | binds | binds
endogenous TRIM65 (protein, UniProt Q6PJ69 1-517) MAAQLLEEKLTCAICLGLYQDPVTLPCGHNFCGACIRDWWDRCGKACPECREPFPDGAELRRNVALSGVLEVVRAGPARDPGPDPGPGPDPAARCPRHGRPLELFCRTEGRCVCSVCTVRECRLHERALLDAERLKREAQLRASLEVTQQQATQAEGQLLELRKQSSQIQNSACILASWVSGKFSSLLQALEIQHTTALRSIEVAKTQALAQARDEEQRLRVHLEAVARHGCRIRELLEQVDEQTFLQESQLLQPPGPLGPLTPLQWDEDQQLGDLKQLLSRLCGLLLEEGSHPGAPAKPVDLAPVEAPGPLAPVPSTVCPLRRKLWQNYRNLTFDPVSANRHFYLSRQDQQVKHCRQSRGPGGPGSFELWQVQCAQSFQAGHHYWEVRASDHSVTLGVSYPQLPRCRLGPHTDNIGRGPCSWGLCVQEDSLQAWHNGEAQRLPGVSGRLLGMDLDLASGCLTFYSLEPQTQPLYTFHALFNQPLTPVFWLLEGRTLTLCHQPGAVFPLGPQEEVLS | binds | binds
